The data set concerns the target PdhR-His (Escherichia coli K-12 LJ110) (UniProt P0ACL9). The experiment in a line: EMSA. The note with it: 50 mM pyruvate, 39 pmol PdhR, 0.1 pmol probe (0.025 pmol for lipA), 6% polyacrylamide gel, recombinant protein, protein details: C-terminal Penta-His, label: 5' DY682 (strand 1), 5' DY782 (strand 2). (In general: A gel shift assay detects complexes by their altered migration in electrophoresis.)

Sequences of proteins named here, by UniProt entry; tags and fusion partners are left off. A change or cut given only in a name is not applied to a line headed by its entry.
UniProt P0ACL9: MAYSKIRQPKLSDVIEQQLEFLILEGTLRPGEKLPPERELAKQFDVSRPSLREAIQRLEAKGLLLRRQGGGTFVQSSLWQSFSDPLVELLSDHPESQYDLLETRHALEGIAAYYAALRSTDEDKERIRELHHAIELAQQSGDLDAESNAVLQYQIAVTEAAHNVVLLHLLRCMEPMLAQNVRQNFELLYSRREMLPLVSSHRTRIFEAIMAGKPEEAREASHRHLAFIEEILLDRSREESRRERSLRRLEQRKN

Construct, isoform or probe ends are uncertain for at least one entry. Negatives hold for the conditions tested.

As to “GCCGAAGTCAATTGGTCTTACCAATTTCATGTCTGTG (double strand) [PdhR-binding site of pdhR-aceEF-lpd operon]”, the binding result is “no binding”.

Source of the values: publication PMC2936295.
